Experimental data taken from PubChem BioAssay AID652054 (National Center for Advancing Translational Sciences (NCATS), 2013).
Hit rate of the full screen: of about 360,000 compounds, about 9,100 (2.5%) were called active. Inconclusive results, whose numbers are uncertain, are shown with a selection of clear calls. Rule as the data show it: active = max response below about -50%; inconclusive = no clear call, values can overlap the other calls; inactive = above that.

By UniProt entry, the sequences of proteins in these tests, tags left out.
UniProt P35462, whole entry, looked up: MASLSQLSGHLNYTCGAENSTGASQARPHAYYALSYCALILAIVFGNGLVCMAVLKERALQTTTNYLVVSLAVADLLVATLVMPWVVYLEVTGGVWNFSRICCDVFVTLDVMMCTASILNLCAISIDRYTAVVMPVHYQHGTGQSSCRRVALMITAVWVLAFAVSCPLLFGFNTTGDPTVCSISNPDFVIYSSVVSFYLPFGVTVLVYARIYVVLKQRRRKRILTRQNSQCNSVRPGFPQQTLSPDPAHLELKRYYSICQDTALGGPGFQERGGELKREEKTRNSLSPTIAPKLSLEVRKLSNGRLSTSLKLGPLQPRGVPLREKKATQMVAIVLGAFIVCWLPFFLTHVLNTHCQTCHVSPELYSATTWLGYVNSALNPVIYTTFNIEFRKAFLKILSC

target: D(3) dopamine receptor (Homo sapiens) (UniProt P35462); test: qHTS of D3 Dopamine Receptor Antagonist: qHTS; conditions: D3R cells, DiscoveRx beta-arrestin luminescence, antagonist mode; active compounds read low
Summary of the method: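 Cells expressing the human receptor were seeded at 1500 cells/well, incubated overnight at 37 degrees C in 5% CO2, then exposed to library compounds with dopamine controls for 90 minutes at 37 degrees C before luminescent detection.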
% is scaled to controls: 0 for no effect and ±100 for the full control effect.

Structure (SMILES) | max response, negative = inhibition
O=C(Nc1ccccc1-c1ccccc1)c1ccc(Cl)c([N+](=O)[O-])c1 | inconclusive: -32.3%
CCOc1ccc2nc3sc(C(=O)N4CCOCC4)c(N)c3cc2c1 | inactive: 6.24%
Cc1nc(=O)c(-c2ccccc2)c(C)n1CCO | inactive: 21.4%
Clc1ccc(NNc2ccnc3cc(Cl)ccc23)cc1 | inconclusive: -31.4%
COc1ccc(NC(=O)CSCC(=O)Nc2cc(Cl)ccc2N2CCOCC2)cc1 | inconclusive: -32.4%
Cc1c(C(=O)OC/C(O)=C(\C#N)c2nc3ccccc3[nH]2)oc2ccccc12 | inconclusive: -46.9%
O=C1C=C(OCCCl)CC(c2cccc(Cl)c2)O1 (stereo unspecified) | inactive: 2.68%
Cc1cccc(N2C(=O)C3C4C=CC(C5CC45)C3C2=O)n1 (stereo unspecified) | inconclusive: -36.4%
CCC(C)(C)C1CCc2[nH]nc(C(=O)NC3CCCCC3)c2C1 (stereo unspecified) | active: -62.2%
O=S(=O)(Nc1ccc(Cl)c(C(F)(F)F)c1)c1cnc[nH]1 | inconclusive: -35.2%
CCOC(=O)C1=C(C)NC(=O)NC1c1ccc(Br)s1 (stereo unspecified) | inactive: 0.575%
O=C(NN1C(=O)/C(=C/C=C/c2ccccc2)SC1=S)c1ccncc1 | inconclusive: -32.5%
O=c1c2ccccc2nc(SCc2nc3ccccc3s2)n1CCCO | inactive: -11.6%
COC(=O)C1=C(C)NC(=O)/C1=C\c1ccco1 | inconclusive: -33%
NC(=O)C1CCN(C(=O)/C=C/c2ccco2)CC1 | inconclusive: -31.8%
C[C@H]1CN([C@@H](C)CO)S(=O)(=O)c2ccc(Br)cc2O[C@H]1CN(C)S(=O)(=O)c1ccccc1 | inconclusive: -34.9%
Cc1ccccc1N1C(=O)CC(Sc2nnc(-c3ccccc3)o2)C1=O (stereo unspecified) | active: -78.9%
COC(=O)c1c(NC(NC(=O)C(C)C)C(Cl)(Cl)Cl)sc2c1CCC2 (stereo unspecified) | inconclusive: -32.3%
O=C(NC(=S)Nc1ccc2c(c1)OCCO2)c1ccco1 | inconclusive: -32.9%
CCC(=O)c1c[nH]c(C(=O)N2CCOCC2)c1 | inactive: -14.5%
CCCCN(C)S(=O)(=O)c1ccc(C(=O)Nc2nnc(CSC)o2)cc1 | active: -97.6%
C=CCN(CC=C)C(=O)COn1nnc2ccc(S(=O)(=O)N3CCOCC3)cc21 | inconclusive: -33.1%
COc1ccccc1C(O)c1ncc(-c2ccccc2C)[nH]1 (stereo unspecified) | inactive: 23.8%

Structure (SMILES) | max response, negative = inhibition
COCCN(Cc1nc2ccccc2c(=O)[nH]1)C(=O)COc1ccccc1-c1ccccc1 | inactive: 7.97%
CN(CC(=O)Nc1ccccn1)S(=O)(=O)c1ccc(Cl)cc1 | inconclusive: -35.3%
O=[N+]([O-])c1cc(CN2CCOCC2)c2cccnc2c1O | inactive: -1.08%
COc1ccc(O)c(C(=O)CC(=O)c2ccc(F)cc2)c1 | inconclusive: -30.7%
CCC(=O)OC1CC(C)N(C(=O)c2ccccc2)c2ccc(C)cc21 (stereo unspecified) | inconclusive: -48.3%
COc1ccc(Nc2nc(N3CCCCC3)nc3ccccc23)c(OC)c1 | inconclusive: -48%
CCOc1ccc(C(=O)NCC(=O)NCCSc2ccc(Br)cc2)cc1OCC | inconclusive: -37.4%
Cc1[nH]c2ccccc2c1/C=N/NC(=O)c1cc(C(C)C)[nH]n1 | inconclusive: -46.3%
Fc1cccc(CN2CCC(Cc3ccccc3)CC2)c1 | active: -52.6%
CC12CCC(c3n[nH]c(=S)nc31)C2(C)C (stereo unspecified) | inconclusive: -31.6%
CC(C)CCOP(=O)(c1ccccc1)c1ccccc1 | inactive: -7.92%
CCOc1ccc(CN2CCN(CCCc3ccccc3)CC2CCO)cc1 (stereo unspecified) | inactive: -14.5%
CCCS(=O)(=O)NC(=O)C1(C)CCN(C(=O)Cc2cccc3ccccc23)C1 (stereo unspecified) | inconclusive: -40.5%
O=C(N/N=C/c1cc(Cl)cc([N+](=O)[O-])c1O)c1cccc(S(=O)(=O)N2CCOCC2)c1 | active: -93%
COc1ccc(NC2CCCN(C(=O)CCN3CCCO3)C2)cc1 (stereo unspecified) | inactive: 23.3%
COc1cc(/C=C/C(=O)Nc2cccnc2)cc(OC)c1OC | inactive: -7.52%
CN(C)C(=O)c1cn(-c2ccccc2)c(=O)c2ccccc12 | inconclusive: -46.6%
COc1cccc(-c2sc3ccc(OC)cc3c2C#CC2(O)CCCCC2)c1 | inactive: 71.9%
[O-][n+]1ccc(CC(O)(C(F)(F)F)C(F)(F)F)cc1 | inactive: -22%
O=C(CN1CCN(C2CCCCC2)CC1)c1ccc2cc[nH]c2c1 | inconclusive: -30%
CCn1cc(C(=O)OCC(=O)c2cc(C)n(-c3cccc(C(F)(F)F)c3)c2C)c(=O)c2ccc(C)nc21 | inactive: -15.6%
CN(C)CCN1CCN(C2CN(C3CCCCC3)S(=O)(=O)C2)CC1 (stereo unspecified) | inconclusive: -38.6%
CCc1ccc(-n2c(C)nc3cc(C(=O)NCc4cccnc4)ccc32)cc1 | inconclusive: -33.3%

Structure (SMILES) | max response, negative = inhibition
O=C(NC(Cc1ccccc1)C(=O)O)C1CCN(S(=O)(=O)c2cccc(C(F)(F)F)c2)CC1 (stereo unspecified) | inactive: -19.7%
O=C(/C=C\c1ccco1)Oc1cccc2cccnc12 | inconclusive: -35.9%
O=C(NC(=S)Nc1ccccc1O)c1ccccc1Cl | inconclusive: -31.2%
COc1ccc(-c2csc(N(CCCN3CCOCC3)C(=O)c3ccco3)n2)cc1 | inconclusive: -35.7%
CCc1cc(-c2n[nH]c(=S)n2C(C)c2ccccc2)cs1 (stereo unspecified) | inconclusive: -30.4%
COc1ccc(C(=O)C(CN2CCCC2)c2ccccc2)cc1 (stereo unspecified) | inconclusive: -41.9%
O=NN(CC(=O)NNc1ccccc1)CC(=O)NNc1ccccc1 | inactive: -23.1%
NS(=O)(=O)c1cccc(NC(=O)CN2CCN(Cc3ccc4c(c3)OCO4)CC2)c1 | inactive: -18.7%
CC(=O)OC[C@@H]1CN(Cc2ccccc2)C[C@H](n2cnc3c(N(C)C(C)C)ncnc32)O1 | inactive: -21.9%
Cc1cc(C)c2nc(SCC(=O)Nc3cc(C)on3)c(C#N)cc2c1 | inconclusive: -34.4%
Cc1oc(-c2ccccc2)nc1CSc1nc2c(c(=O)[nH]1)CCC2 | inactive: 152%
CC1=C(C)/C(=N\OS(=O)(=O)c2ccccc2)C=CC1=O | active: -88.8%
Cc1ccc(S(=O)(=O)Nc2ccc3c4c(cccc24)CC3)c(C)c1 | inconclusive: -39.4%
Cc1oc(-c2cccc(F)c2)nc1CN1CCCCC1CCn1cccn1 (stereo unspecified) | inconclusive: -41.4%
Cc1[nH]nc2c1C(C(C)C)C(C#N)=C(N)O2 (stereo unspecified) | inconclusive: -41.3%
Cc1cccc(C)c1-n1c(C)cc(/C=N/NC(N)=S)c1C | active: -83.9%
C=C1C(=O)OC2C1CCC(C)C1C=CC(=O)C12C (stereo unspecified) | inconclusive: -32.5%
CCc1ccc(N=Nc2ccc(O)c3[nH]cnc23)cc1 | inactive: 0.592%
NC(=S)Nc1cc2ccccc2c2ccccc12 | active: -63.5%
CCOC(=O)c1[nH]c2ccccc2c1N=CN(C)C | inconclusive: -49.9%
COC(=O)C1CCN(C2=C(NS(=O)(=O)c3ccc(Cl)cc3)C(=O)c3ccccc3C2=O)CC1 | inactive: -15%
CCc1nnc(NC(=O)c2ccc(S(=O)(=O)N3CCCCCC3)cc2)s1 | inconclusive: -43.2%
CN(C)C(CNC(=O)Nc1cccc(Cl)c1)c1cccnc1 (stereo unspecified) | active: -52.5%

Structure (SMILES) | max response, negative = inhibition
Cc1cc(SCc2ccc(Cl)c(Cl)c2)nc(=O)[nH]1 | inactive: 9.9%
COc1ccc(-c2cc(C(F)F)n3ncc(C(=O)N4CCN(C)CC4)c3n2)cc1 | inconclusive: -40.9%
CC(=O)c1ccccc1NC(=O)COC(=O)CCC1CCCC1 | inactive: 16.5%
O=C(O)c1ccccc1Cc1ccc(F)c2ccccc12 | inconclusive: -37.1%
NS(=O)(=O)c1ccc(NS(=O)(=O)/C=C/c2ccccc2)cc1 | inconclusive: -30.9%
COc1ccc(S(=O)(=O)N2CCCCCC2)cc1C(=O)Nc1ccc(C)cn1 | inconclusive: -33.6%
Cc1ccc(CN=Cc2[nH]c3ccc(Br)c(Cl)c3c2O)cc1 | active: -101%
COc1ccc(N(C(C)C(=O)N2CCCC2)S(C)(=O)=O)cc1 (stereo unspecified) | inactive: -0.837%
O=C(c1ccccc1F)n1c2c(c3ccccc31)CCCC2 | inactive: -2.15%
COc1ccc2nc(-c3ccccc3)cc(OC)c2c1 | inactive: 35.3%
O=C(/C=C/c1ccc(Cl)cc1)c1ccc([N+](=O)[O-])o1 | active: -101%
Cc1ccc(F)cc1NC(=O)Nc1cc(C(C)(C)C)nn1C | inactive: 3.17%
CCCCCc1cc(=O)oc2c(C(CCN3CCCC3)c3ccc(N(C)C)cc3)c(OC)cc(OC)c12 (stereo unspecified) | inconclusive: -47.9%
CC(C)=N/N=C1/NC(=O)C(c2ccccc2)S1 (stereo unspecified) | inconclusive: -36.5%
CCN1C(=O)N(CC)C(O)(c2ccccc2)C1(O)c1ccccc1 (stereo unspecified) | inconclusive: -44.2%
COC(=O)CSc1snnc1-c1ccc(F)cc1 | inactive: -2%
COCCn1ccc2c(OCC(=O)NCCc3ccccc3)cccc2c1=O | inactive: 0.951%
Cc1ccc(S(=O)(=O)/N=C2\C=C(NS(=O)(=O)c3ccccc3)C(=O)c3ccccc32)c(C)c1 | inconclusive: -33.8%
CCOc1ccc(-c2cc3cc(OC)c(OC)cc3c(C)n2)cc1 | inactive: -1.94%
CCOc1ccc2nc(/N=C/c3c(C)[nH]n(-c4ccccc4)c3=O)sc2c1 | inconclusive: -33%
CC[C@@]1(C(=O)OC)N[C@H](CN(C)C(=O)Nc2ccc(C(F)(F)F)cc2)[C@@H]2C(=O)N(Cc3ccccc3)C(=O)[C@@H]21 | inconclusive: -36.8%
O=C(COc1ccc(Br)cc1)c1ccc2c(c1)CCCC2 | inactive: -6.89%

Four of these compounds, set out differently.

| Structure (SMILES) | max response, negative = inhibition |
| --- | --- |
| CCOc1ccc2nc3sc(C(=O)N4CCOCC4)c(N)c3cc2c1 | inactive: 6.24% |
| O=C(NN1C(=O)/C(=C/C=C/c2ccccc2)SC1=S)c1ccncc1 | inconclusive: -32.5% |
| CN(CC(=O)Nc1ccccn1)S(=O)(=O)c1ccc(Cl)cc1 | inconclusive: -35.3% |
| [O-][n+]1ccc(CC(O)(C(F)(F)F)C(F)(F)F)cc1 | inactive: -22% |
